# Values of other authors in publication PMC12434071, “Platinum-group metal half-sandwich complexes of 1-(α-D-glucopyranosyl)-4-hetaryl-1,2,3-triazoles: synthesis, solution equilibrium studies, and investigation of their anticancer and antimicrobial activities” (Frontiers in Chemistry, 2025).
# pIC50: −log10 of the molar value.
# System: A2780 cells
# Design: method as in Kacsir et al., 2023a
# Settings: cisplatin-sensitive A2780 cells; ref Kacsir et al., 2023a; cited from earlier work
structure (smiles),measurement,value
N.N.[Cl][Pt][Cl] [cisplatin],pIC50,5.92
